# PubChem BioAssay AID493014 (National Center for Advancing Translational Sciences (NCATS), 2011)
# The list shows a part of the results. The main result of the screen is listed elsewhere. These columns were measured beside it and carry no call. Compounds called inactive in the main read-out are mostly missing here. Words in brackets tell the shape of the fitted curve; partial curves, single points and poor fits give uncertain potencies.
# Assay: qHTS Assay to Find Inhibitors of Chronic Active B-Cell Receptor Signaling
# Settings: ABC-DLBCL IkBa-CBG/CBR reporter, luminescence ratio (green luciferase fused to IkBa over red control in TMD8 lymphoma cells), 4 h; measured here: CBR red luminescence, cell number
# Summary of the method: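 Compounds up to 46 uM were incubated four hours with TMD8 cells whose green CBG68 luciferase is fused to IkappaBalpha; red CBR luminescence normalised the signal, and concentration-effect curves were fitted to fusion, red and ratio data.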
row,Structure (SMILES),AC50
1,CC(=O)Oc1ccc2nc(-c3cccs3)oc(=O)c2c1,"4.47 µM [falling, partial curve]"
2,CCOCCn1ccc2c(OCC(=O)Nc3ccccc3F)cccc2c1=O,"1.3 µM [falling, full curve]"
3,CCOC(=O)C1=C(c2ccccc2)OC(N)=C(C#N)C1c1ccncc1 (stereo not drawn),"10 µM [falling, partial curve]"
4,CCC(C)Sc1ccc(-c2nc3ccc(C)cn3c2NCc2ccccc2)cc1OC (stereo not drawn),"29.1 µM [falling, single point]"
5,Cc1ccc(/C=C2\SC(N3CCCCC3)=NC2=O)cc1,"0.631 µM [rising, full curve, poor fit]"
6,O=C1C2C3C=CC(CC3)C2C(=O)N1c1ccccc1[N+](=O)[O-] (stereo not drawn),"20 µM [falling, partial curve]"
7,O=C(N[C@@H](Cc1ccccc1)C(=O)OCc1ccccc1)c1nc[nH]c1C(=O)NCc1ccccc1,"6.31 µM [rising, single point]"
8,OC(COCc1ccc(Cl)cc1)CN1CCN(CC(O)COCc2ccc(Cl)cc2)CC1 (stereo not drawn),"32.6 µM [falling, single point]"
9,N#Cc1c(-c2cccnc2)cc(-c2ccccc2)nc1N,"0.562 µM [falling, full curve, poor fit]"
10,CCCn1c(NCc2cccc(OC)c2O)nc2ccccc21,"5.8 µM [falling, partial curve, poor fit]"
11,Nc1cc(C(=O)OCC(=O)NCc2ccco2)ccc1Cl,"35.5 µM [falling, single point]"
12,CC(=O)c1ccc(S(=O)(=O)NCC(=O)Nc2nc3ccccc3[nH]2)cc1,"16.4 µM [falling, single point]"
13,Cc1ccnc(NC(=O)c2cc3c(=O)oc4ccc(C)cc4c3s2)c1,"0.891 µM [rising, full curve, poor fit]"
14,COc1cccc(N2CCN(S(=O)(=O)c3cccc4cccnc34)CC2)c1,"15.8 µM [falling, single point]"
15,Cc1ccc(N(C)C(=O)c2cc(S(=O)(=O)N3CCc4ccccc43)cn2C)cc1,"35.5 µM [falling, single point]"
16,CCN(CC)c1ccc(CNc2ccc3c(c2)ncn3CC)cc1,"12.6 µM [rising, partial curve]"
17,COCCNc1ncnc2c1[nH]c1ccccc12,"10 µM [falling, partial curve, poor fit]"
18,O=C(OCc1cccc([N+](=O)[O-])c1)c1cc(=O)[nH]c2ccccc12,"0.708 µM [rising, full curve, poor fit]"

# As a working copy, some entries already given.
row,Structure (SMILES),AC50
4,CCC(C)Sc1ccc(-c2nc3ccc(C)cn3c2NCc2ccccc2)cc1OC (stereo not drawn),"29.1 µM [falling, single point]"
5,Cc1ccc(/C=C2\SC(N3CCCCC3)=NC2=O)cc1,"0.631 µM [rising, full curve, poor fit]"
